# The supplement of paper PMC10735217
# Where a name gives a salt, the structure may show the parent alone. This is one part of the list. Single values are uncertain here, since repeats match poorly.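 The human kidney-derived cells carry a stably integrated construct of eight TEAD-binding elements driving luciferase, read by luminescence in a drug-repurposing library screen. A compound counts as a hit when its signal is more than five robust Z scores above the plate mean.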
# Test system: HEK293A TEAD-LUC reporter
# Assay: TEAD-luciferase reporter activity (YAP activation), robust Z score vs plate; higher = stronger YAP/TEAD activation
# Settings: 24 h
SMILES,TEAD-luciferase reporter activity (compound concentration: 200 nM),TEAD-luciferase reporter activity (compound concentration: 2 uM),TEAD-luciferase reporter activity (compound concentration: 10 uM)
COc1cc(Cc2cnc(N)nc2N)c2cc(Cc3c(C(=O)N(C)C)[nH]c4ccc(Cl)cc34)oc2c1OC,inactive: 1.31,inactive: -0.229,inactive: -1.87
Cc1nc(-c2ccc(C(F)(F)F)cc2)sc1COc1ccc(C(=O)O)c(Cl)c1,inactive: -1.68,inactive: -0.936,inactive: -0.713
CN(Cc1ccc2ccccc2n1)C[C@H](O)COc1ccc(NS(C)(=O)=O)cc1,inactive: 1.22,inactive: 0.749,inactive: 0.955
CN1CCCC(n2nc(Cc3ccc(Cl)cc3)c3ccccc3c2=O)CC1 (centres undefined) [azelastine hydrochloride],inactive: -0.35,inactive: -0.828,inactive: 1.39
CCCCCCCOc1ccc(CCC(N)(CO)CO)cc1C(F)(F)F,inactive: 1.73,inactive: -1.14,inactive: -0.839
CCCCC[C@@](C)(O)/C=C/[C@H]1[C@H](O)CC(=O)[C@@H]1C/C=C\CCCC(=O)O [Arbaprostil],inactive: 0.0601,inactive: -1.07,inactive: -0.881
CC(=O)OCC(=O)[C@@]1(OC(C)=O)[C@@H](C)C[C@H]2[C@@H]3C[C@H](F)C4=CC(=O)C=C[C@]4(C)[C@@]3(F)[C@@H](O)C[C@@]21C [diflorasone diacetate],inactive: -0.463,inactive: -0.811,inactive: 1.19
Cc1cc(C(=O)N(C)[C@H](CN2CC(O)C2)C(C)C)ccc1F,inactive: -0.61,inactive: 0.364,inactive: -1.61
N#CC1=C(N)Oc2cc(O)ccc2C1c1cccc(F)c1 (centres undefined),inactive: 3.3,inactive: -0.259,inactive: -1.47
C=CCc1cc(-c2cc(CC=C)c(O)c(CN(CC)CC)c2)cc(CN(CC)CC)c1O,inactive: -2.6,inactive: -0.264,inactive: 1.32
N=C(c1ccc(C(=O)Nc2ccc3c(c2)CC(CC(=O)O)CO3)cc1)N1CCOCC1 (centres undefined),inactive: -2.49,inactive: -0.34,inactive: 3.25
CN(CC1CC1)C1CCc2ccccc21 (centres undefined),inactive: 0.355,,inactive: 0.465
O=C(O)COC(=O)Cc1ccccc1Nc1c(Cl)cccc1Cl,inactive: 2.58,,inactive: 0.251
O=C(O)COC(=O)Cc1ccccc1Nc1c(Cl)cccc1Cl [Aceclofenac],,inactive: -0.203,
O=C1C[C@@H](c2ccc(O)cc2)Oc2cc(O)cc(O)c21,inactive: 0.152,,inactive: 0.546
O=C1C[C@@H](c2ccc(O)cc2)Oc2cc(O)cc(O)c21 [Naringenin],,inactive: -1.49,
Oc1cccc(c1)/C/1=C/2\C=CC(=N2)/C(=c\2/cc/c(=C(/c3[nH]c(/C(=C/4\N=C1C=C4)/c1cccc(c1)O)cc3)\c1cccc(c1)O)/[nH]2)/c1cccc(c1)O [meta-HK7],inactive: -0.842,,inactive: 0.113
O=C1NCCN1C1CCN(CC[C@H]2COc3ccccc3O2)CC1 [azaloxan],inactive: 1.07,inactive: -0.126,inactive: -1.91
[O-][n+]1ccc(CC(c2ccc(C(O)(C(F)(F)F)C(F)(F)F)cc2)c2ccc(OC(F)F)c(OC(F)F)c2)cc1 (centres undefined),inactive: -0.402,inactive: -0.417,inactive: 2.27

# Some of the entries above, set out differently.
SMILES	TEAD-luciferase reporter activity (compound concentration: 200 nM)	TEAD-luciferase reporter activity (compound concentration: 2 uM)	TEAD-luciferase reporter activity (compound concentration: 10 uM)
CCCCCCCOc1ccc(CCC(N)(CO)CO)cc1C(F)(F)F	inactive: 1.73	inactive: -1.14	inactive: -0.839
N#CC1=C(N)Oc2cc(O)ccc2C1c1cccc(F)c1 (centres undefined)	inactive: 3.3	inactive: -0.259	inactive: -1.47
O=C1C[C@@H](c2ccc(O)cc2)Oc2cc(O)cc(O)c21	inactive: 0.152		inactive: 0.546
O=C1C[C@@H](c2ccc(O)cc2)Oc2cc(O)cc(O)c21 [Naringenin]		inactive: -1.49	
O=C1NCCN1C1CCN(CC[C@H]2COc3ccccc3O2)CC1 [azaloxan]	inactive: 1.07	inactive: -0.126	inactive: -1.91
